# Laboratory results published in the supplement of paper PMC12823440, “Inhibitors supercharge kinase turnover through native proteolytic circuits” (Nature, 2025).
# By UniProt entry, the sequences of proteins in these tests, tags left out. Where a name states a change or a piece, a line headed by the entry shows the natural chain unless it says otherwise.
# UniProt P29597: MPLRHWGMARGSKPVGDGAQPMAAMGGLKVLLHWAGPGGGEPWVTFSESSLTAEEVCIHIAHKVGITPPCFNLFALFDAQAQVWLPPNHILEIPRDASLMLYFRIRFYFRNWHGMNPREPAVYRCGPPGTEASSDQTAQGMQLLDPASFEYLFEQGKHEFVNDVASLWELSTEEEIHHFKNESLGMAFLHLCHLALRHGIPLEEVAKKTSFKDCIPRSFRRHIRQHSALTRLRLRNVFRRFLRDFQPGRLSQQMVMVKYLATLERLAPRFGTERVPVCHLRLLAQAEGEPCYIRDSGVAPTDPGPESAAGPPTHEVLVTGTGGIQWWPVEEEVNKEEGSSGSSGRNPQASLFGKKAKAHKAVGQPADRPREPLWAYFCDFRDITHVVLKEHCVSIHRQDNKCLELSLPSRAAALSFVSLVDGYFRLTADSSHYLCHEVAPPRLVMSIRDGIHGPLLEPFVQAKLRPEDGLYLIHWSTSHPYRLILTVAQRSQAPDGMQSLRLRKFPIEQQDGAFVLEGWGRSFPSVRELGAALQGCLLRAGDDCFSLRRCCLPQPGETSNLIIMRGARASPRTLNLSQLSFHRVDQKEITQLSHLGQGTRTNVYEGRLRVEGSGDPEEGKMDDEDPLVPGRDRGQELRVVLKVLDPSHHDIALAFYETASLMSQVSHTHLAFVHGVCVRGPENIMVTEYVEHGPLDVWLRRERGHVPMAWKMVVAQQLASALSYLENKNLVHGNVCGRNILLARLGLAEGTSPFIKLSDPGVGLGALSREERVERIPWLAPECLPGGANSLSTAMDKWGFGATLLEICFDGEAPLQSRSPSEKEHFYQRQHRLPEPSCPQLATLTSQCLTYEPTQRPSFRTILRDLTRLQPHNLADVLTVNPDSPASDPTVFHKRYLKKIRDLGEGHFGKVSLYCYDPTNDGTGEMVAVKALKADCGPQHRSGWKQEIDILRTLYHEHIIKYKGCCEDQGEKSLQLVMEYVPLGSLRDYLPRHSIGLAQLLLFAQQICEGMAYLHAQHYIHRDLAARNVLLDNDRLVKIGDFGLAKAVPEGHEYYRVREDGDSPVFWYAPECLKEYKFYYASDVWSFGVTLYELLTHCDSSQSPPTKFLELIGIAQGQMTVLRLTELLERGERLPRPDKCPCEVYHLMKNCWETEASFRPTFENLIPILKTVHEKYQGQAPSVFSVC
# UniProt Q6PHR2: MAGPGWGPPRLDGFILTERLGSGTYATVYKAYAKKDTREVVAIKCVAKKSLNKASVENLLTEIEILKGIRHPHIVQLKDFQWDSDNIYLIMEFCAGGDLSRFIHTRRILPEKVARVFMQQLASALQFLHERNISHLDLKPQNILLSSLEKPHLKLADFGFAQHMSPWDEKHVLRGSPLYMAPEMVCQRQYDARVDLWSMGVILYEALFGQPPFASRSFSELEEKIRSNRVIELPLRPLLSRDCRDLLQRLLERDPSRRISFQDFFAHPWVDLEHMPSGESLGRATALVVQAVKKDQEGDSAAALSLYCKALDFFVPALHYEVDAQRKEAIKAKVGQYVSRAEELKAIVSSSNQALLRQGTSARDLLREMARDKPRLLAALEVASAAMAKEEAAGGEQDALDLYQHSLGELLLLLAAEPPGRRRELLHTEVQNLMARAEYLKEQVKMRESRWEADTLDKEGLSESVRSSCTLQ
# UniProt P07947, whole entry, looked up: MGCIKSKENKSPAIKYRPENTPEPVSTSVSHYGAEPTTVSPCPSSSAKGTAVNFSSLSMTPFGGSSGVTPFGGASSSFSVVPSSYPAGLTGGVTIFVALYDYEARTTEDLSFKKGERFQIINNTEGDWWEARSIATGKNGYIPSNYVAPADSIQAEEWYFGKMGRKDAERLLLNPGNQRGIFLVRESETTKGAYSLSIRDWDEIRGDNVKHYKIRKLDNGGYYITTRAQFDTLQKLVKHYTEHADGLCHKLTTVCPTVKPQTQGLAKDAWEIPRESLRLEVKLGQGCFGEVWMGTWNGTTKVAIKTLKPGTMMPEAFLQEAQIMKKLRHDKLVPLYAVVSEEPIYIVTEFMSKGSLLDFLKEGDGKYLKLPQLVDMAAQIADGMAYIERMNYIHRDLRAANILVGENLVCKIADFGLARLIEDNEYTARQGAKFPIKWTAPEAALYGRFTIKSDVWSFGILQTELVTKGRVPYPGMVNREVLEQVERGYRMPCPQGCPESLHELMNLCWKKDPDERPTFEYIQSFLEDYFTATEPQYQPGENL
# UniProt P00519, whole entry: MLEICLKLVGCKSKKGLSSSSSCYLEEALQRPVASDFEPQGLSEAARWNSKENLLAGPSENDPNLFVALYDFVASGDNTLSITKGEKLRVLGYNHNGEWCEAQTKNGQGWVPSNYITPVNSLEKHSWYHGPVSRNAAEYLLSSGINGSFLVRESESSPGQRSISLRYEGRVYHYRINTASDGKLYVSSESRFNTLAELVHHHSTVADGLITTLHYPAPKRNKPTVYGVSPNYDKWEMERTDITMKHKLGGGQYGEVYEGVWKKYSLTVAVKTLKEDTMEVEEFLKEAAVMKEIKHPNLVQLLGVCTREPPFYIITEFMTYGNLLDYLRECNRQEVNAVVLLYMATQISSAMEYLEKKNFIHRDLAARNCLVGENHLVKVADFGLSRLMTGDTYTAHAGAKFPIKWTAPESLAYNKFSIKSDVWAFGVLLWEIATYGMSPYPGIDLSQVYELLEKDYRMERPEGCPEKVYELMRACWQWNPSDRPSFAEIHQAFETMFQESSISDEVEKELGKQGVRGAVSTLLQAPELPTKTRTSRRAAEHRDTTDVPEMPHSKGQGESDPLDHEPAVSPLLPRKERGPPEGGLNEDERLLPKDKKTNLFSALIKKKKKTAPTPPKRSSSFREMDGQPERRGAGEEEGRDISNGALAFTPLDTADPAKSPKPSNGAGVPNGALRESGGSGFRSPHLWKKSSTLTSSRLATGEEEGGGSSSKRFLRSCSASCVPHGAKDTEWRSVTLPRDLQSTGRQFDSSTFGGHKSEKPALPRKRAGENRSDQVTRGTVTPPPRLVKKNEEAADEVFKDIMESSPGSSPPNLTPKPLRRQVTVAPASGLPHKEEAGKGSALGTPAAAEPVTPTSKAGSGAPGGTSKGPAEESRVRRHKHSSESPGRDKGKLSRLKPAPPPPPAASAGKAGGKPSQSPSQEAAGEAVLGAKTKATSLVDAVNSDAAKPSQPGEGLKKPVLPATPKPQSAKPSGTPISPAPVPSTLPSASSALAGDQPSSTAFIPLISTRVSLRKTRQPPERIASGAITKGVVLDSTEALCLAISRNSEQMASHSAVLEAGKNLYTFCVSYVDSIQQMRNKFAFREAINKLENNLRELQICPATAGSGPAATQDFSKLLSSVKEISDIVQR
# UniProt P31749: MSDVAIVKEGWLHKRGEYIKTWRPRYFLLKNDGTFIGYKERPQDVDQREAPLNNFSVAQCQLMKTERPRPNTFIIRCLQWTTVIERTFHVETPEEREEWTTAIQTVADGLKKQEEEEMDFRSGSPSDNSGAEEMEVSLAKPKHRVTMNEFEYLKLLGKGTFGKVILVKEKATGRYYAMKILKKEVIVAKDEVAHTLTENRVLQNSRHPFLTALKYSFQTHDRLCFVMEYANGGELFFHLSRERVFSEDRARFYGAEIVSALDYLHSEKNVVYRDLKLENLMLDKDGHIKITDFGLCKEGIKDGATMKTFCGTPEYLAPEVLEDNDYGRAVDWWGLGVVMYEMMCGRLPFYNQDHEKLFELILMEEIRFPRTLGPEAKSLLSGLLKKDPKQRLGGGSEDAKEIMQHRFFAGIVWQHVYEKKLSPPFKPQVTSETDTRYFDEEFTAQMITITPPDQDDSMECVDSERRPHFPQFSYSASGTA
# UniProt P10398: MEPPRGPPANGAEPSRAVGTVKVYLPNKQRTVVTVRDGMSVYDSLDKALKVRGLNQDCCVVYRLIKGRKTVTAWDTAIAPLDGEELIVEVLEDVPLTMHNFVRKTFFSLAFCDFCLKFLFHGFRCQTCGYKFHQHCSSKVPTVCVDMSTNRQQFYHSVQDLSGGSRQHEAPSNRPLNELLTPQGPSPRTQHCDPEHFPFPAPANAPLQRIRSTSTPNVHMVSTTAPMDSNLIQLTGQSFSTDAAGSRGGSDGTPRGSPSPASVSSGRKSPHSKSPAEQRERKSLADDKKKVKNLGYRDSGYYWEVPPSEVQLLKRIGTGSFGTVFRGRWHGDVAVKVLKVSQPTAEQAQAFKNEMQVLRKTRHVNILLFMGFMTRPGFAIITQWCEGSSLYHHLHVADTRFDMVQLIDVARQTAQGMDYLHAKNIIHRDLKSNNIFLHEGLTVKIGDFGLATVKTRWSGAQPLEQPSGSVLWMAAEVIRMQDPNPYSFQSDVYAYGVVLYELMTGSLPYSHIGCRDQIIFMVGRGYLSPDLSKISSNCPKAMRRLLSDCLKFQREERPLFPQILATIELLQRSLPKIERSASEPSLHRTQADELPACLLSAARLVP
# UniProt O14965: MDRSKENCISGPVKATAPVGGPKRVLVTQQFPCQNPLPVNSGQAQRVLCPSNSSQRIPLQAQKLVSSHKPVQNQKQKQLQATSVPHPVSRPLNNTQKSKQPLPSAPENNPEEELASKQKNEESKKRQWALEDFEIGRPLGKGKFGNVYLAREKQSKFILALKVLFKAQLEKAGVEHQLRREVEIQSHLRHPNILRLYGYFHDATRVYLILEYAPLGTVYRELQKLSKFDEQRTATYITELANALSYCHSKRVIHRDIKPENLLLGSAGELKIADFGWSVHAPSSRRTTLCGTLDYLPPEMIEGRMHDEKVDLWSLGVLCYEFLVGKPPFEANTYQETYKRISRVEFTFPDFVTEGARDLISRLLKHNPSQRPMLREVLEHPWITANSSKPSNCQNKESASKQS
# UniProt Q96GD4, whole entry: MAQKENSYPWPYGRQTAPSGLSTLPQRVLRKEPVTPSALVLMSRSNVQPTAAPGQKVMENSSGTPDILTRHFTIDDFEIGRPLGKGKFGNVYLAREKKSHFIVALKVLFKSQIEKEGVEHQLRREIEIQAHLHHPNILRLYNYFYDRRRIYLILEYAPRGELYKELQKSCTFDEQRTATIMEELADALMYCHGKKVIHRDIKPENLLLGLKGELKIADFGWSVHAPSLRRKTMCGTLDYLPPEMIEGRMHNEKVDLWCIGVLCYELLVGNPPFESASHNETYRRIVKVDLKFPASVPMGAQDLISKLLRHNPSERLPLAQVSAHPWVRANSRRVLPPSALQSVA
# UniProt P51451: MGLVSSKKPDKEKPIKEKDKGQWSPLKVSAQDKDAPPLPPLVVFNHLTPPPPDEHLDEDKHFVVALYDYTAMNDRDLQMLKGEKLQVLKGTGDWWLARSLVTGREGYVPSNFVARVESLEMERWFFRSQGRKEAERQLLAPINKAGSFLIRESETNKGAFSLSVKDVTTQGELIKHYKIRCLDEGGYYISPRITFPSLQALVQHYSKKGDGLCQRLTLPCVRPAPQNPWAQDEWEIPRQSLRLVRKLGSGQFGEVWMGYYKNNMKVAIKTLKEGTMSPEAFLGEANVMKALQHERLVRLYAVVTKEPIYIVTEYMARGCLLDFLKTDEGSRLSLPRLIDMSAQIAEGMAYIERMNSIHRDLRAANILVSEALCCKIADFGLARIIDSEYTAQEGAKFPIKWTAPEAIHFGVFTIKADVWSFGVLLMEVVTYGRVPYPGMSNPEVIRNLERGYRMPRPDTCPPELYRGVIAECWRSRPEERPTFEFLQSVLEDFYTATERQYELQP
# UniProt P51813: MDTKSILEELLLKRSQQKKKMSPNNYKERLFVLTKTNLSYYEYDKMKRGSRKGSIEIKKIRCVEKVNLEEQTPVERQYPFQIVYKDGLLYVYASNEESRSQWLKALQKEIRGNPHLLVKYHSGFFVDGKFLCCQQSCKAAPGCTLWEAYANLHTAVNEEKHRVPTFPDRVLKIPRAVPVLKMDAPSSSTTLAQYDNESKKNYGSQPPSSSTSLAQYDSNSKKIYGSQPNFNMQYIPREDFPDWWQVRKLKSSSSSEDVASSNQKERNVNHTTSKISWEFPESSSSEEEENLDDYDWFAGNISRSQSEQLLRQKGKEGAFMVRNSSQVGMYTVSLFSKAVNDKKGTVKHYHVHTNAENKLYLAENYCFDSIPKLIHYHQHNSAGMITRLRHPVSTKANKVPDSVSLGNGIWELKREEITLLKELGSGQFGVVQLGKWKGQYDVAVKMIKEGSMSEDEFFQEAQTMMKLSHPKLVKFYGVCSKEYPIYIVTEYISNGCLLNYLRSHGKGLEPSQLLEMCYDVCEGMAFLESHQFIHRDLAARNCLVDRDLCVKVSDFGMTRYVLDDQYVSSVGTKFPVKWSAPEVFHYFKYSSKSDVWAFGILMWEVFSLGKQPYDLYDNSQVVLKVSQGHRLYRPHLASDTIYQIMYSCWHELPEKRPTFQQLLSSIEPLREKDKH
# Counter-ions that a name gives are not always drawn. This is one part of the list. The calls rarely recur for the same compound in another form.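 Kinases, fused to nanoluciferase, were expressed in K562 cells; luminescence was measured every 4 h from 2 to 18 h as percent of control (DMSO = 100%, positive control = 0%). A time point is decreased if signal falls significantly (2 sigma). Hits were called by the authors by a rule that is not shown; the count of time points alone does not decide it.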
# Legend:
# Settings in all cases: K562; 2-18 h
# [1] = target: STK38 (UniProt Q15208); assay: kinase-Nluc reporter destabilization hit call (1 = scored as downregulated) (binary); higher = compound decreases kinase abundance
# [2] = target: SYK (UniProt P43405); assay: as above
# [3] = target: TEC (UniProt P42680); assay: as above
# [4] = target: TYK2 (UniProt P29597); assay: as above
# [5] = target: ULK3 (UniProt Q6PHR2); assay: as above
# [6] = target: YES1 (UniProt P07947); assay: as above
# [7] = target: ZAK (UniProt Q9NYL2); assay: as above
# [8] = target: ZAP70 (UniProt P43403); assay: as above
# [9] = target: ABL1 (UniProt P00519); assay: number of time points (of 5) at which kinase-Nluc abundance scored as decreased, DMSO-normalised (count); higher = more persistent destabilization
# [10] = target: AKT1 (UniProt P31749); assay: as above
# [11] = target: ALK (UniProt Q9UM73); assay: as above
# [12] = target: ARAF (UniProt P10398); assay: as above
# [13] = target: AURKA (UniProt O14965); assay: as above
# [14] = target: AURKB (UniProt Q96GD4); assay: as above
# [15] = target: AURKC (UniProt Q9UQB9); assay: as above
# [16] = target: BLK (UniProt P51451); assay: as above
# [17] = target: BMX (UniProt P51813); assay: as above
# [18] = target: BRAF (UniProt P15056); assay: as above
# [19] = tested on: BRAF_V600E; assay: as above
# [20] = target: BTK (UniProt Q06187); assay: as above
Compound,kinase-Nluc reporter destabilization hit call [1],kinase-Nluc reporter destabilization hit call [2],kinase-Nluc reporter destabilization hit call [3],kinase-Nluc reporter destabilization hit call [4],kinase-Nluc reporter destabilization hit call [5],kinase-Nluc reporter destabilization hit call [6],kinase-Nluc reporter destabilization hit call [7],kinase-Nluc reporter destabilization hit call [8],number of time points [9],number of time points [10],number of time points [11],number of time points [12],number of time points [13],number of time points [14],number of time points [15],number of time points [16],number of time points [17],number of time points [18],number of time points [19],number of time points [20]
C1=N/C2=N/c3ccc(OCCN4CCCC4)c(c3)COC/C=C/COCc3cccc(c3)C(=C1)N2 [Pacritinib] (2.5 µM),inactive: 0,inactive: 0,inactive: 0,inactive: 0,inactive: 0,inactive: 0,inactive: 0,inactive: 0,0,0,0,0,0,0,0,0,4,0,0,0
CC(=O)Nc1nc(C)c(-c2cc3c(c(S(C)(=O)=O)c2)C(=O)N([C@@H](C)C2CC2)C3)s1 (2.5 µM),inactive: 0,inactive: 0,inactive: 0,inactive: 0,inactive: 0,inactive: 0,inactive: 0,inactive: 0,0,0,0,0,0,0,0,0,0,0,0,0
O=C(CCc1ccc2n1[B-](F)(F)[N+]1=C(c3ccc[nH]3)C=CC1=C2)ON1C(=O)CCC1=O [Py-BODIPY-NHS ester] (2.5 µM),inactive: 0,inactive: 0,inactive: 0,inactive: 0,inactive: 0,inactive: 0,inactive: 0,inactive: 0,0,0,0,0,0,0,0,0,0,0,0,0
Cc1cc(Nc2ncc(Cl)c(Nc3ccccc3S(=O)(=O)C(C)C)n2)c(OC(C)C)cc1C1CCN(CC(=O)NCCNc2cccc3c2C(=O)N(C2CCC(=O)NC2=O)C3=O)CC1 (stereo not given) (10 µM),inactive: 0,inactive: 0,inactive: 0,inactive: 0,inactive: 0,inactive: 0,inactive: 0,inactive: 0,0,0,4,0,0,0,0,0,0,0,0,0
CC(C)c1cnn2c(NCc3ccccc3)cc(NCCCCCCN)nc12 [BS-181 (hydrochloride)] (10 µM),inactive: 0,inactive: 0,inactive: 0,inactive: 0,inactive: 0,inactive: 0,inactive: 0,inactive: 0,0,0,0,0,0,0,0,0,0,0,0,0
CNC[C@@H](NC(=O)c1ccc(-c2nc([C@H]3CC[C@H](O)[C@@H](F)C3)cnc2N)cc1F)c1cc(F)cc(Br)c1 [Rineterkib] (10 µM),inactive: 0,inactive: 0,inactive: 0,inactive: 0,inactive: 0,inactive: 0,inactive: 0,inactive: 0,0,0,0,0,0,0,0,0,0,0,0,0
COc1cccc2cc(-c3nc([C@H]4CC[C@H](C(=O)O)CC4)n4ncnc(N)c34)[nH]c12 (2.5 µM),inactive: 0,inactive: 0,inactive: 0,inactive: 0,inactive: 0,inactive: 0,inactive: 0,inactive: 0,4,0,2,0,4,0,0,3,3,2,4,0
CS(=O)(=O)N1CCc2c(-c3cnc(N)nc3)nc(N3CCOCC3)nc21 (10 µM),inactive: 0,inactive: 0,inactive: 0,inactive: 0,inactive: 0,inactive: 0,inactive: 0,inactive: 0,0,0,0,0,0,0,0,0,0,0,0,0
CC(C)(O)c1cc(Nc2cc(Oc3cn(C4CC4)nc3C3CCOCC3)ccn2)ccn1 (10 µM),inactive: 0,inactive: 0,inactive: 0,inactive: 0,inactive: 0,inactive: 0,inactive: 0,inactive: 0,0,0,0,0,0,0,0,0,0,0,0,0
CCS(=O)(=O)c1ccc(Oc2cc(O[C@@H](C)CO)cc(C(=O)Nc3ccn(C)n3)c2)cn1 (10 µM),inactive: 0,inactive: 0,inactive: 0,inactive: 0,inactive: 0,inactive: 0,inactive: 0,inactive: 0,0,0,0,0,0,0,0,0,0,0,0,0
CS(=O)(=O)N1CCN(Cc2cn3cc(-c4cnc(N)nc4)nc(N4CCOCC4)c3n2)CC1 (10 µM),inactive: 0,inactive: 0,inactive: 0,inactive: 0,inactive: 0,inactive: 0,inactive: 0,inactive: 0,4,0,0,0,4,2,0,0,4,3,0,0
CCCCCC1CC1CC1CC1CCCCCCCC(=O)O (stereo not given) (10 µM),inactive: 0,inactive: 0,inactive: 0,inactive: 0,inactive: 0,inactive: 0,inactive: 0,inactive: 0,0,0,0,0,0,0,0,0,0,0,0,0
Cc1nc(NC(=O)N2CCC[C@H]2C(N)=O)sc1-c1csc(C(C)(C)C)n1 (10 µM),inactive: 0,inactive: 0,inactive: 0,inactive: 0,inactive: 0,inactive: 0,inactive: 0,inactive: 0,0,0,0,0,0,0,0,0,0,0,0,0
O=c1sn(-c2cccc3ccccc23)c(=O)n1Cc1ccccc1 [Tideglusib] (10 µM),inactive: 0,inactive: 0,inactive: 0,inactive: 0,inactive: 0,inactive: 0,inactive: 0,inactive: 0,0,0,0,0,0,0,0,0,0,0,0,0
CC(C)(C)NS(=O)(=O)c1cncc(-c2cc(F)c3nc(N)nn3c2)c1 (10 µM),inactive: 0,inactive: 0,inactive: 0,inactive: 0,inactive: 0,inactive: 0,inactive: 0,inactive: 0,0,0,0,0,0,0,0,0,0,0,0,0
O=S(=O)(N=Cc1c(O)ccc2ccccc12)c1cccs1 (10 µM),inactive: 0,inactive: 0,inactive: 0,inactive: 0,inactive: 0,inactive: 0,inactive: 0,inactive: 0,0,0,0,0,0,0,0,0,0,0,0,0
COc1cc(Nc2nc3ccccc3nc2NS(=O)(=O)c2ccc(NC(=O)c3ccc(C)c(OC)c3)cc2)cc(OC)c1 (10 µM),inactive: 0,inactive: 0,inactive: 0,inactive: 0,inactive: 0,inactive: 0,inactive: 0,inactive: 0,0,0,0,0,0,0,0,0,0,0,0,0
Cc1cc(/C=C2\CC/C(=C\c3cc(C)c(O)c(C)c3)C2=O)cc(C)c1O [Pentagamavunon-1] (2.5 µM),inactive: 0,inactive: 0,inactive: 0,inactive: 0,inactive: 0,inactive: 0,inactive: 0,inactive: 0,2,3,1,0,0,0,0,0,0,0,0,0
C=CC(=O)N1CCC[C@@H](n2c(=O)n(-c3ccc(Oc4ccccc4)cc3)c3c(N)nccc32)C1 [Tolebrutinib] (10 µM),inactive: 0,inactive: 0,inactive: 0,inactive: 0,inactive: 0,inactive: 0,inactive: 0,inactive: 0,0,0,0,0,0,0,0,0,0,0,0,0

# A second format for part of the listing above.
Compound	kinase-Nluc reporter destabilization hit call [1]	kinase-Nluc reporter destabilization hit call [2]	kinase-Nluc reporter destabilization hit call [3]	kinase-Nluc reporter destabilization hit call [4]	kinase-Nluc reporter destabilization hit call [5]	kinase-Nluc reporter destabilization hit call [6]	kinase-Nluc reporter destabilization hit call [7]	kinase-Nluc reporter destabilization hit call [8]	number of time points [9]	number of time points [10]	number of time points [11]	number of time points [12]	number of time points [13]	number of time points [14]	number of time points [15]	number of time points [16]	number of time points [17]	number of time points [18]	number of time points [19]	number of time points [20]
CC(C)c1cnn2c(NCc3ccccc3)cc(NCCCCCCN)nc12 [BS-181 (hydrochloride)] (10 µM)	inactive: 0	inactive: 0	inactive: 0	inactive: 0	inactive: 0	inactive: 0	inactive: 0	inactive: 0	0	0	0	0	0	0	0	0	0	0	0	0
CCCCCC1CC1CC1CC1CCCCCCCC(=O)O (stereo not given) (10 µM)	inactive: 0	inactive: 0	inactive: 0	inactive: 0	inactive: 0	inactive: 0	inactive: 0	inactive: 0	0	0	0	0	0	0	0	0	0	0	0	0
